Laboratory results from article PMC8209095.
No constants are given. Whether binding was seen depends on the method and setting. In cells and extracts the contact can be indirect. These calls come from enrichment with a bait or labelling near it, and not all partners need be listed.

Target: SFB-tagged HAT domain of human OGA (C-OGA) (human)
Assay: affinity purification with mass spectrometry; 293T cells stably expressing SFB-OGA-HAT lysed in NETN buffer; streptavidin beads, biotin elution, then S protein beads; SDS-PAGE bands analysed by mass spectrometer

binding: binds
B1: endogenous NONO (protein, UniProt Q15233 1-471)
chain: MQSNKTFNLEKQNHTPRKHHQHHHQQQHHQQQQQQPPPPPIPANGQQASSQNEGLTIDLKNFRKPGEKTFTQRSRLFVGNLPPDITEEEMRKLFEKYGKAGEVFIHKDKGFGFIRLETRTLAEIAKVELDNMPLRGKQLRVRFACHSASLTVRNLPQYVSNELLEEAFSVFGQVERAVVIVDDRGRPSGKGIVEFSGKPAARKALDRCSEGSFLLTTFPRPVTVEPMDQLDDEEGLPEKLVIKNQQFHKEREQPPRFAQPGSFEYEYAMRWKALIEMEKQQQDQVDRNIKEAREKLEMEMEAARHEHQVMLMRQDLMRRQEELRRMEELHNQEVQKRKQLELRQEEERRRREEEMRRQQEEMMRRQQEGFKGTFPDAREQEIRMGQMAMGGAMGINNRGAMPPAPVPAGTPAPPGPATMMPDGTLGLTPPTTERFGQAATMEGIGAIGGTPPAFNRAAPGAEFAPNKRRRY
